# Measured values published in patent US20210361577A1, “LIPOPHILIC TRANSPORT PARTICLES FOR COSMETIC OR PHARMACEUTICAL ACTIVE INGREDIENTS” (IOI OLEO GMBH, priority 2018, published 2021).
# For at least one compound, name, drawing or mass did not settle the structure.
# Test: encapsulation efficiency of carrier particles made by high pressure homogenisation
# Type: physicochemical
# Conditions: carrier particles in aqueous suspension
smiles,measurement,value
C[C@@H]1C[C@H]2[C@@H]3CCC4=CC(=O)C=C[C@]4(C)[C@@]3(F)[C@@H](O)C[C@]2(C)[C@@]1(O)C(=O)CO [dexamethasone],encapsulation efficiency,more than 90 % by weight
